No constants are given. Whether binding was seen depends on the method and setting. Binding seen in cells or lysates may run through a third protein. A yes stands for co-enrichment or nearness to the bait. Other partners may have been found. Sequences can lack the tags named with a protein.
T1: HALO-tagged WT Borg5 (Borg5-TEV-HALO) (mouse) (UniProt Q91W92)
T1 sequence: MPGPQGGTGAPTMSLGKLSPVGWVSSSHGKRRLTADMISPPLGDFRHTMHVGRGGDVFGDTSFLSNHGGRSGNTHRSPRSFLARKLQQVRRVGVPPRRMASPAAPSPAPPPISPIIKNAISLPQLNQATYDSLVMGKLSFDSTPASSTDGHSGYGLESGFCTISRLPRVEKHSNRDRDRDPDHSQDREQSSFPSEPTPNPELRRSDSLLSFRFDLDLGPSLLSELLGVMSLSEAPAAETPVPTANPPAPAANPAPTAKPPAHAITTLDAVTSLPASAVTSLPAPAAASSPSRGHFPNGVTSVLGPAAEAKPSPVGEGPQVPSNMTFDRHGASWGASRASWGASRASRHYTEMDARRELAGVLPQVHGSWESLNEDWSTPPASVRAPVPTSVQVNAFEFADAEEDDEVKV

B1: ARHGEF2 (endogenous, MDCK) (protein, UniProt Q865S3 1-986)
chain: MSRIESLTRARTERSRELASKNREKEKMKEAKDARYTNGHLFTTISVSGMTMCYACNKSITAKEALICPTCNVTIHNRCKDTLANCTKVKQKQQKAALLKNSTALQSVSLRSKTTPRERPSSAIYPSDSFRQSLLGSRRGRSSLSLAKSVSTTNIAGHFSDESPLGLRRILSQSTDSLNMRNRALSVESLIDEGAEVIYSELMSDFETDERDFAADSWSLAVDSSFLQQQKKEVMKQQDVIYELIQTELHHVRTLKIMTRLFRTGMLEELQLEPGVVQGLFPCVDELSDIHTRFLSQLLERRRQALCPGSTRNFVIHRLADLLISQFSGPSAERMRKAYSEFCSRHTKALKLYKELYARDKRFQQFIRKVTRSAVLKRHGVQECILLVTQRITKYPVLINRILQHSHGTDEERQDLTTALGLVKELLSNVDQDVHELEKGARLQEIYHRMDPRAQAPVPSKGPFGREELLRRKLIHDGCLLWKTATGRFKDVLMLLMTDVLVFLQEKDQKYIFPALDKPSVVSLQNLIVRDIANQEKGMFLISAAPPEMYEVHTASRDDRSTWVRVIQQSVRVCPSREDFPLIETEDEAYLRRIKMELQQKDKALVELLREKVGLFAEMTHFQVEEDSGGVALPALPRGLFRSESLECPRGERLLQDAIREVEGLKDLLVGPGVELLLTPRDPALLVDPDSGGSTSPGVTANGEARNFNGSIELCRTDSDSSQKDRNGNQLRAPQEEALQRLVNLYGLLHGLQAAVAQQDTLMEARFPEGPERREKLARANSRDGEAGRVGPAPVAPDKQATELALLQRQHALLQEELRRCRRLGEERATEAGNLEARLRESEQARALLEREAEEARRQLAILGQSEPPPAEAPWARRPLDPRRRSLPAGDALYLSFTPPQPSRGHDRLDLSVTIRSVHRPFEDRERQELGSPEERLQDSSDPDTGSEEEGGGRLSPPHSPRDFTRMQDIPEETESRDGEPMVSES

target: T1, HALO-tagged WT Borg5 (Borg5-TEV-HALO) (mouse); test: affinity purification with mass spectrometry; Borg5-TEV-HALO captured on HALO-Trap agarose from Triton X-100 lysates of transfected MDCK cells (10 mM Tris-HCl pH 7.5, 150 mM NaCl, 0.5 mM EDTA, 1 mM DTT), 2 h at 4°C, released by TEV protease; mock-transfected cells as control; three experiments

| binding | Molecule |
| --- | --- |
| binds | B1 |

target: T1, HALO-tagged WT Borg5 (Borg5-TEV-HALO) (mouse); test: as above; remark: another data set of the same source

| binding | Molecule |
| --- | --- |
| binds | filamin A (endogenous, MDCK) |
| binds | septin 2 (endogenous, MDCK) |
| binds | septin 7 (endogenous, MDCK) |
| binds | septin 9 (endogenous, MDCK) |
| binds | α-actinin 1 (endogenous, MDCK) |
